Earlier results, collected in US20230293713A1, “ANTI-TM4SF1 ANTIBODY DRUG CONJUGATES AND METHODS OF USING SAME” (priority 2020, published 2023).
At least one structure is not confirmed: it was looked up by name or label, or the drawing left a doubt.

Conditions: Phase II FALCON study; reduced from 16.2; cited from earlier work

Q: Which overall survival does the source give for `COc1ccc(/C=C\c2cc(OC)c(OC)c(OC)c2)cc1OP(=O)(O)O` [CA4P] here?
A: 13.6 months
